Measurements reported in article PMC6330330.
These are yes or no findings as the source states them, for the method shown. In cells and extracts the contact can be indirect. Some binding calls cover weakened binding; strength is not graded here.

By UniProt entry, the sequences of proteins in these tests, tags left out. Residues count along the entry.
UniProt Q00954, residues 19-218: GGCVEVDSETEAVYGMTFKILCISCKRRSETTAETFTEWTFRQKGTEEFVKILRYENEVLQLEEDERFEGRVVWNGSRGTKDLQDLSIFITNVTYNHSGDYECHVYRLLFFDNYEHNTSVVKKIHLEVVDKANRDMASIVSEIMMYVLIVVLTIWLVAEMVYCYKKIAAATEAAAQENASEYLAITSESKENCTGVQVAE
UniProt Q62968: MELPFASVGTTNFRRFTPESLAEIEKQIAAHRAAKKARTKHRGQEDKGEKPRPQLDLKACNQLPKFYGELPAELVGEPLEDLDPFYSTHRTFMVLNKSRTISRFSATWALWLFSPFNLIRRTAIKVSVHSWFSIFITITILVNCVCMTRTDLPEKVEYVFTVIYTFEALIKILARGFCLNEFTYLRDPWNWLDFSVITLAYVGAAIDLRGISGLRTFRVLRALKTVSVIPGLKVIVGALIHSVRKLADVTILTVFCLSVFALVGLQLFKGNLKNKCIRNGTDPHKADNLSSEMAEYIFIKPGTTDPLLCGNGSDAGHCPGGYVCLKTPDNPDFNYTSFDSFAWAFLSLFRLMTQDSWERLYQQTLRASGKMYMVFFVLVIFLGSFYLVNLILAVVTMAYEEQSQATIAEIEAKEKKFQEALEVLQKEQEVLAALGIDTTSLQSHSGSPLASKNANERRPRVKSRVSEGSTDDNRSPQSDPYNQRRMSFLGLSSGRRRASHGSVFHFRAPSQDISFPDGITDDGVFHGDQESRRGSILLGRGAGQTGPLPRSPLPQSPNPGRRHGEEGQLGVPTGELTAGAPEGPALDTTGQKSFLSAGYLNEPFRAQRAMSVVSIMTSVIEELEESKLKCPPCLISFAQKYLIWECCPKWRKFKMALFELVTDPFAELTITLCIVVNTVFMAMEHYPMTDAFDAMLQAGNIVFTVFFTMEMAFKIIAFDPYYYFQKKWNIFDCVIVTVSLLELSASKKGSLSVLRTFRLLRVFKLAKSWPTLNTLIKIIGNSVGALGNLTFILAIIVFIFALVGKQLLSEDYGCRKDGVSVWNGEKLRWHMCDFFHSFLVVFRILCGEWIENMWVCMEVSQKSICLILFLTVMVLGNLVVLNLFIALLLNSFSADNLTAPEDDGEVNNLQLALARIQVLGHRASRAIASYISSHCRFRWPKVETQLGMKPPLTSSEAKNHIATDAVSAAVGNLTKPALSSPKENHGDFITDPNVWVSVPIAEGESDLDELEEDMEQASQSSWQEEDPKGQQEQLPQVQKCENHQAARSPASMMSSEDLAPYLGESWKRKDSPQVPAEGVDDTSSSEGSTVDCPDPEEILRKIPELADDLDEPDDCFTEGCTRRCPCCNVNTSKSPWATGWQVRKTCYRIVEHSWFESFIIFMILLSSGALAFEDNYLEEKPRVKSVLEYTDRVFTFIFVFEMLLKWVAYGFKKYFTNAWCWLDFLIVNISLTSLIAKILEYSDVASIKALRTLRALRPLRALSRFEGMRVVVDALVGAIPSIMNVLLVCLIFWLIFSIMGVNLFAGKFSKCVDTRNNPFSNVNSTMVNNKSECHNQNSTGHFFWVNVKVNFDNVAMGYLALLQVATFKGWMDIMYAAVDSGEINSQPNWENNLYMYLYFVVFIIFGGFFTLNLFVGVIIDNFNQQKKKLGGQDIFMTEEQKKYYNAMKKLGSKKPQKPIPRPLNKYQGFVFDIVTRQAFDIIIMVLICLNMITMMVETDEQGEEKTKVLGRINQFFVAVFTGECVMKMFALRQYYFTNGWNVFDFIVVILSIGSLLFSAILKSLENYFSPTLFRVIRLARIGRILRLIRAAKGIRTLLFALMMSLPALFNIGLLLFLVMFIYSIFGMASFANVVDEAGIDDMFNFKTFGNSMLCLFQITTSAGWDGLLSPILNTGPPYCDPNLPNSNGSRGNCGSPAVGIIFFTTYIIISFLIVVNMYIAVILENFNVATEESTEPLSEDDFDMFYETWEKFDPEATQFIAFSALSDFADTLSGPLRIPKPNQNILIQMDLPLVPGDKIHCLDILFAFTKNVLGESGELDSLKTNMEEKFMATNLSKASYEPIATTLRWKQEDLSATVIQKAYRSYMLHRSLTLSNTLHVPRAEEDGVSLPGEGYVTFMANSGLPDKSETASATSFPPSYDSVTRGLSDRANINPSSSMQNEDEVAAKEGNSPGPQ

Target: Nav β1 subunit (rat (endogenous in DRG)) (UniProt Q00954)
Experiment: co-IP; rat DRG protein extract (control and paclitaxel-treated rats) lysed in cold RIPA buffer (20 mM Tris-HCl pH 7.5, 150 mM NaCl, 0.1% Triton X-100, 1% sodium deoxycholate); precipitated with 1-5 ug Nav1.8 or Navβ1 antibody at 4°C overnight, protein A/G beads 4 h; immunoblot

Substance: Nav1.8 channel (from UniProt Q62968 1-1956)
- binding: binds
